We go through two sequences from US20200283832.

One data set addresses T1, DpnI (UniProt P0A460).
T1 sequence (looked up, limits assumed): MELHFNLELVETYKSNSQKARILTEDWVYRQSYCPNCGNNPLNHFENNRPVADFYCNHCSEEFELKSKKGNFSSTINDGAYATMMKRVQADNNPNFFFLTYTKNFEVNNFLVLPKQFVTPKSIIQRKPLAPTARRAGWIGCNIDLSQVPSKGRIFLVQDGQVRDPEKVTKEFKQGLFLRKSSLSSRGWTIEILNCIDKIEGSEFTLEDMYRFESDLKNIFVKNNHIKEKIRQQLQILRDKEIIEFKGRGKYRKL
In words: enzyme reaction in vitro. The settings on record: PS linkage between last two nt of oligo 2, 5' phosphate on oligo 3, BHQ-2 dT quencher, Mg acetate, 37 C, purified recombinant protein, protein details: New England Biolabs.

The next data set deals with T2, DpnII (UniProt P09357).
T2 sequence (looked up, limits assumed): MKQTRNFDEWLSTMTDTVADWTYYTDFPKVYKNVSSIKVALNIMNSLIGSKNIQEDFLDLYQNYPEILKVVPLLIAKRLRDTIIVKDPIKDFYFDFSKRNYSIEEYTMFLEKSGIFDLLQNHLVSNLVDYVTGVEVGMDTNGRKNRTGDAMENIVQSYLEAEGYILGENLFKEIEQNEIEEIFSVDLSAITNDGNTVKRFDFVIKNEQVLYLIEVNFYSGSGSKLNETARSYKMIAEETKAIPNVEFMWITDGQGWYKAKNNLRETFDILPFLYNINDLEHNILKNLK
In words: enzyme reaction in vitro. The settings on record: PS linkage between last two nt of oligo 2, 5' phosphate on oligo 3, BHQ-2 dT quencher, Mg acetate, 37 C, purified recombinant protein, protein details: New England Biolabs.

No signal at the amounts used counts as a negative. Tags and fusion partners may be left off the protein sequences shown. The exact form of at least one protein or probe is not confirmed.

Regarding “TTTCGAGTGAGGTCATGGTCGACAGGTGGGTTTAGATGATGATCAGATGTTGCCCTTAGC / TAAGGGCAACATCTGATCATCATCTAAACCCACCTGTCGAGT”, the “activity on this sequence” value is “not active” with DpnI (N6-methyl-dA in GATC and in the following ATCAGA of oligo 1b, 3' inverted dT on oligos 1b and 3, DpnI unable to cleave hemimethylated duplex, label: Atto 594 on dT); “active” in the data set with DpnI (N6-methyl-dA in oligo 1b, captured dA is N6-methyl-dA, 3' inverted dT on oligos 1b and 3, iterative cleavage, Atto594 signal, label: Atto 594 on dT); “not active” in the data set with DpnII (N6-methyl-dA in oligo 1b, captured dA is N6-methyl-dA, 3' inverted dT on oligos 1b and 3, DpnII unable to cleave, label: Atto 594 on dT).
On to “TTTCGGGTGAGGTCATGGTCGACAGGTGGGTTTAGATGATGATCAGATGTTGCCCTTAGC / TAAGGGCAACATCTGATCATCATCTAAACCCACCTGTCGAGT”, for which the “activity on this sequence” value is recorded as “not active” with DpnI (3' inverted dT on oligos 1a and 3, DpnI unable to cleave, label: Atto 700 on dT); “active” in the data set with DpnII (3' inverted dT on oligos 1a and 3, iterative cleavage, Atto700 signal, K acetate, label: Atto 700 on dT); “not active” with DpnII (captured dA is N6-methyl-dA, 3' inverted dT on oligos 1a and 3, DpnII unable to cleave, label: Atto 700 on dT).
